{"sequences": {"note": "Chains of the proteins cited; added tags and fusions are not shown.", "UniProt Q96KS0, whole entry": "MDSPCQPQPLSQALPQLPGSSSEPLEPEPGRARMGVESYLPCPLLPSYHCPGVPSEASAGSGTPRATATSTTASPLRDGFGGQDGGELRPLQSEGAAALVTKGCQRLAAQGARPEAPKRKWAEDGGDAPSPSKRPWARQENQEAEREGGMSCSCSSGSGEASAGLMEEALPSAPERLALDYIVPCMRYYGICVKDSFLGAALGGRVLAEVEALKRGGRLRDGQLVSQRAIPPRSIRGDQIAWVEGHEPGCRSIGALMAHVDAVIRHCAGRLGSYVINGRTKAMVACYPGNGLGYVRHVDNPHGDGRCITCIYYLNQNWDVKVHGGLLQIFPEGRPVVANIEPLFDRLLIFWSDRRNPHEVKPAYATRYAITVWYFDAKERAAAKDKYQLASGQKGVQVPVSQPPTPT", "UniProt Q9GZT9, whole entry": "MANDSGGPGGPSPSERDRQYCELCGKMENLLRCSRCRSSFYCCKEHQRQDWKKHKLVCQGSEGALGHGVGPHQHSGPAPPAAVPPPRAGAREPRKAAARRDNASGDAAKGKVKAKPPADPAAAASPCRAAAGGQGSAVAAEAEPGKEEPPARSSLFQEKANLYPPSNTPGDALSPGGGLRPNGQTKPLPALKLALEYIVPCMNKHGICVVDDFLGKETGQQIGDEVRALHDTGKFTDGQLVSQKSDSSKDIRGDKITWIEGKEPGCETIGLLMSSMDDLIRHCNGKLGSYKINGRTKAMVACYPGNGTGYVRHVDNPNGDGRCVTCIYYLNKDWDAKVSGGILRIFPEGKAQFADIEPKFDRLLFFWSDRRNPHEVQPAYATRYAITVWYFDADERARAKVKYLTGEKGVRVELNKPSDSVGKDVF"}, "source": "patent US20230159489A1", "about": "“PHD INHIBITOR COMPOUNDS, COMPOSITIONS, AND USE” (Akebia Therapeutics, Inc., priority 2020, published 2023)", "key": {"full-length human PHD1": {"target": "full-length human PHD1 (Homo sapiens, UniProt Q96KS0)", "test": "TR-FRET assay, enzymatic IC50 against PHD1", "conditions": "read-out: PHD1 IC50, 15 nM PHD1, 1 μM 2-OG"}, "full-length human PHD2": {"target": "full-length human PHD2 (Homo sapiens, UniProt Q9GZT9)", "test": "TR-FRET assay, enzymatic IC50 against PHD2", "conditions": "read-out: PHD2 IC50, 5 nM PHD2, 1 μM 2-OG"}}, "note": "Structures were worked out from names or drawings and are uncertain.", "data": [{"smiles": "Cc1nn(-c2ccc([S@](=N)(=O)C3CC3)cn2)c(O)c1-c1ccc(C#N)cc1", "values": [{"measurement": "IC50", "setting": "full-length human PHD1", "result": "< 100", "unit": "nM"}, {"measurement": "IC50", "setting": "full-length human PHD2", "result": "< 100", "unit": "nM"}]}]}
